Measurements reported in PubChem BioAssay AID1259254 (NCATS, 2017).
The whole screen tested about 59,000 reagents; shown is a random part of them. Of all reagents, about 1,550 (2.6%) were called active. 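G2 share is only a proxy for re-replication; each gene was hit by three separate siRNAs, and active genes were retested.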 Reagents against one gene are numbered here. Further read-outs or replicates are left out here. Not stated in the record: the amount of reagent.

Aim: 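Genome-wide screen for genes that prevent DNA re-replication in cancer cells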 (primary screen)
Cell system: human HCT116 colorectal cancer cells
Reagents: single siRNA against human genes
Time to read-out: 3 days
Measurement: 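Imaged Hoechst DNA stain sorts each cell into a cycle phase by DNA amount; per plate, G2 fraction set to 0% for non-targeting and 100% for GMNN siRNA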
Reading the numbers: G2 robust z-score and G2 cells, % of GMNN control: higher = more G2 cells, more excess DNA replication
Rule for the call: 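An siRNA counts as active if its G2 robust z-score lies at least 5 MADs above the screen median; here such calls match roughly 38% of GMNN control or more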

Target gene	siRNA no.	G2 robust z-score	G2 cells, % of GMNN control	Outcome
HPS3 (HPS3 biogenesis of lysosomal organelles complex 2 subunit 1)	1	2.65	21.6	inactive
HPS3 (HPS3 biogenesis of lysosomal organelles complex 2 subunit 1)	2	3.13	25	inactive
HPS3 (HPS3 biogenesis of lysosomal organelles complex 2 subunit 1)	3	-0.293	0.904	inactive
NEUROD4 (neuronal differentiation 4)	1	4.44	34.2	inactive
NEUROD4 (neuronal differentiation 4)	2	3.18	25.3	inactive
NEUROD4 (neuronal differentiation 4)	3	3.65	28.6	inactive
RBMS1 (RNA binding motif single stranded interacting protein 1)	1	0.2	4.37	inactive
RBMS1 (RNA binding motif single stranded interacting protein 1)	2	-0.0795	2.41	inactive
RBMS1 (RNA binding motif single stranded interacting protein 1)	3	2.51	20.7	inactive
GARIN1A (golgi associated RAB2 interactor 1A)	1	0.537	6.75	inactive
GARIN1A (golgi associated RAB2 interactor 1A)	2	0.477	6.32	inactive
GARIN1A (golgi associated RAB2 interactor 1A)	3	0.486	6.39	inactive
SIGLEC9 (sialic acid binding Ig like lectin 9)	1	-0.915	-3.47	inactive
SIGLEC9 (sialic acid binding Ig like lectin 9)	2	0.683	7.78	inactive
SIGLEC9 (sialic acid binding Ig like lectin 9)	3	-0.936	-3.62	inactive
DICER1 (dicer 1, ribonuclease III)	1	-0.133	2.03	inactive
DICER1 (dicer 1, ribonuclease III)	2	1.31	12.2	inactive
DICER1 (dicer 1, ribonuclease III)	3	4.18	32.4	inactive
APBA1 (amyloid beta precursor protein binding family A member 1)	1	0.853	8.97	inactive
APBA1 (amyloid beta precursor protein binding family A member 1)	2	0.454	6.16	inactive
APBA1 (amyloid beta precursor protein binding family A member 1)	3	-0.281	0.991	inactive
CLEC4D (C-type lectin domain family 4 member D)	1	-1.18	-5.3	inactive
CLEC4D (C-type lectin domain family 4 member D)	2	-0.139	1.99	inactive
CLEC4D (C-type lectin domain family 4 member D)	3	0.0321	3.19	inactive
CAMSAP2	1	-1.27	-5.99	inactive
CAMSAP2	2	1.37	12.6	inactive
CAMSAP2	3	-0.375	0.33	inactive
SLC25A45	1	2.94	23.6	inactive
SLC25A45	2	0.628	7.39	inactive
SLC25A45	3	-0.207	1.51	inactive
GSX1 (GS homeobox 1)	1	-0.171	1.77	inactive
GSX1 (GS homeobox 1)	2	-0.0916	2.32	inactive
GSX1 (GS homeobox 1)	3	3.26	25.9	inactive
UMOD (uromodulin)	1	0.177	4.21	inactive
UMOD (uromodulin)	2	3.44	27.2	inactive
UMOD (uromodulin)	3	0.281	4.94	inactive
MPPE1 (metallophosphoesterase 1)	1	-0.238	1.29	inactive
MPPE1 (metallophosphoesterase 1)	2	0.694	7.85	inactive
MPPE1 (metallophosphoesterase 1)	3	3.48	27.4	inactive
CABP2 (calcium binding protein 2)	1	0.284	4.97	inactive
CABP2 (calcium binding protein 2)	2	-0.684	-1.85	inactive
CABP2 (calcium binding protein 2)	3	0.266	4.84	inactive
TNFAIP1 (TNF alpha induced protein 1)	1	-0.707	-2	inactive
TNFAIP1 (TNF alpha induced protein 1)	2	-0.274	1.04	inactive
TNFAIP1 (TNF alpha induced protein 1)	3	0.218	4.5	inactive
FIGNL1 (fidgetin like 1)	1	-0.536	-0.801	inactive
FIGNL1 (fidgetin like 1)	2	0.58	7.05	inactive
FIGNL1 (fidgetin like 1)	3	-0.892	-3.31	inactive
F2R (coagulation factor II thrombin receptor)	1	-0.0686	2.48	inactive
F2R (coagulation factor II thrombin receptor)	2	-0.549	-0.893	inactive
F2R (coagulation factor II thrombin receptor)	3	4.68	35.9	inactive
CDH23 (cadherin related 23)	1	-0.129	2.06	inactive
CDH23 (cadherin related 23)	2	-0.113	2.17	inactive
CDH23 (cadherin related 23)	3	1.69	14.9	inactive
AREL1 (apoptosis resistant E3 ubiquitin protein ligase 1)	1	-0.244	1.25	inactive
AREL1 (apoptosis resistant E3 ubiquitin protein ligase 1)	2	0.97	9.8	inactive
AREL1 (apoptosis resistant E3 ubiquitin protein ligase 1)	3	0.255	4.76	inactive
IFT140 (intraflagellar transport 140)	1	-1.31	-6.25	inactive
IFT140 (intraflagellar transport 140)	2	4.9	37.5	inactive
IFT140 (intraflagellar transport 140)	3	0.358	5.49	inactive
LCN10 (lipocalin 10)	1	0.235	4.62	inactive
LCN10 (lipocalin 10)	2	3.06	24.5	inactive
LCN10 (lipocalin 10)	3	-0.224	1.39	inactive
FCAMR (Fc alpha and mu receptor)	1	1.05	10.4	inactive
FCAMR (Fc alpha and mu receptor)	2	4.39	33.9	inactive
FCAMR (Fc alpha and mu receptor)	3	-0.291	0.921	inactive
ZNF596 (zinc finger protein 596)	1	0.0905	3.6	inactive
ZNF596 (zinc finger protein 596)	2	3.01	24.1	inactive
ZNF596 (zinc finger protein 596)	3	4.63	35.6	inactive
ZBTB6 (zinc finger and BTB domain containing 6)	1	-0.83	-2.87	inactive
ZBTB6 (zinc finger and BTB domain containing 6)	2	0.205	4.41	inactive
ZBTB6 (zinc finger and BTB domain containing 6)	3	-0.554	-0.931	inactive
LINC00693 (long independently transcribed non-coding RNA 693)	1	0.871	9.1	inactive
LINC00693 (long independently transcribed non-coding RNA 693)	2	0.556	6.88	inactive
LINC00693 (long independently transcribed non-coding RNA 693)	3	-0.604	-1.28	inactive
PCDHGA6 (protocadherin gamma subfamily A, 6)	1	4.17	32.3	inactive
PCDHGA6 (protocadherin gamma subfamily A, 6)	2	-0.0571	2.57	inactive
PCDHGA6 (protocadherin gamma subfamily A, 6)	3	1.14	11	inactive
LRP11 (LDL receptor related protein 11)	1	-0.442	-0.141	inactive
LRP11 (LDL receptor related protein 11)	2	0.172	4.18	inactive
LRP11 (LDL receptor related protein 11)	3	3.27	25.9	inactive
ESRP2 (epithelial splicing regulatory protein 2)	1	-1.31	-6.22	inactive
ESRP2 (epithelial splicing regulatory protein 2)	2	1.93	16.6	inactive
ESRP2 (epithelial splicing regulatory protein 2)	3	0.735	8.14	inactive
POLK (DNA polymerase kappa)	1	0.263	4.81	inactive
POLK (DNA polymerase kappa)	2	-1.18	-5.33	inactive
POLK (DNA polymerase kappa)	3	-0.933	-3.6	inactive
